Results deposited as PubChem BioAssay AID1259308 (NCATS, 2017)

Test: 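Knock-downs that increase output of a recombinant reporter protein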 (primary screen)
System: human HEK293 embryonic kidney cells stably expressing firefly luciferase (HEK-CMV-Luc2-Hygro)
Knock-down reagent: single siRNA against human genes, 0.8 pmol siRNA per well
Duration: 72 h
Detection: 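Reporter luminescence and viable-cell signal on separate replicate plates, given as percent of non-targeting control and median/MAD z-scores, plus per-cell luciferase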
Scale: total luciferase, z-score and total luciferase, % of control: higher = more reporter protein produced
Rule for the call: 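Active when the median/MAD z-score for overall luciferase is greater than 3; a gene was taken forward for validation with new siRNAs if at least two of its three siRNAs passed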
Calls: active = raised luciferase; inactive = no rise
Here is a random part of about 59,000 deposited reagents. About 1,510 of them (2.6%) were called active. 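Calls use total luciferase alone and ignore viability, so some active siRNAs may act by altering cell number.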 Reagents against one gene are numbered here. Not all columns of the deposit are shown. No sequences are given here.

Knock-down of SEC14L1 (SEC14 like lipid binding 1) #1 gave: total luciferase, z-score 1.51; total luciferase, % of control 112; inactive. For SEC14L1 (SEC14 like lipid binding 1) #2, the values are total luciferase, z-score -1.72; total luciferase, % of control 47.6; inactive. SEC14L1 (SEC14 like lipid binding 1) #3 showed total luciferase, z-score -1.59; total luciferase, % of control 50.2; inactive. PKDCC (protein kinase domain containing, cytoplasmic) #1 gave total luciferase, z-score 0.853; total luciferase, % of control 98.8; inactive. For PKDCC (protein kinase domain containing, cytoplasmic) #2 the deposit lists total luciferase, z-score 0.637; total luciferase, % of control 94.6; inactive. For PKDCC (protein kinase domain containing, cytoplasmic) #3 the deposit lists total luciferase, z-score -0.07; total luciferase, % of control 80.5; inactive.

Knock-down of SCARF2 (scavenger receptor class F member 2) #1 came out at: total luciferase, z-score 0.662; total luciferase, % of control 95.1; inactive. After knock-down of SCARF2 (scavenger receptor class F member 2) #2, the record shows total luciferase, z-score 0.224; total luciferase, % of control 86.3; inactive. Against SCARF2 (scavenger receptor class F member 2) #3, the values are total luciferase, z-score 1.33; total luciferase, % of control 108; inactive. With knock-down of CCDC140 (CCDC140 long non-coding RNA) #1, the screen gave total luciferase, z-score -0.0811; total luciferase, % of control 80.3; inactive. Against CCDC140 (CCDC140 long non-coding RNA) #2, the entry reads total luciferase, z-score 1.78; total luciferase, % of control 117; inactive. CCDC140 (CCDC140 long non-coding RNA) #3 scored total luciferase, z-score -0.14; total luciferase, % of control 79.1; inactive.

SEBOX (SEBOX homeobox) #1 showed total luciferase, z-score -0.661; total luciferase, % of control 68.7; inactive. Knock-down of SEBOX (SEBOX homeobox) #2 resulted in: total luciferase, z-score -0.433; total luciferase, % of control 73.3; inactive. Knock-down of SEBOX (SEBOX homeobox) #3 gave: total luciferase, z-score -0.0419; total luciferase, % of control 81.1; inactive. For CHRM5 (cholinergic receptor muscarinic 5) #1, the values are total luciferase, z-score -0.652; total luciferase, % of control 68.9; inactive. CHRM5 (cholinergic receptor muscarinic 5) #2 scored total luciferase, z-score -0.876; total luciferase, % of control 64.5; inactive. Against CHRM5 (cholinergic receptor muscarinic 5) #3, the values are total luciferase, z-score -0.511; total luciferase, % of control 71.7; inactive.

With knock-down of TTC9C (tetratricopeptide repeat domain 9C) #1, the screen gave total luciferase, z-score 0.249; total luciferase, % of control 86.8; inactive. Silencing of TTC9C (tetratricopeptide repeat domain 9C) #2 resulted in: total luciferase, z-score 0.457; total luciferase, % of control 91; inactive. TTC9C (tetratricopeptide repeat domain 9C) #3 scored total luciferase, z-score -0.297; total luciferase, % of control 76; inactive.

Not a retest: 5 of the entries above.
CCDC140 (CCDC140 long non-coding RNA) #3 — total luciferase, z-score: -0.14; total luciferase, % of control: 79.1; Call: inactive
SEBOX (SEBOX homeobox) #1 — total luciferase, z-score: -0.661; total luciferase, % of control: 68.7; Call: inactive
SEBOX (SEBOX homeobox) #2 — total luciferase, z-score: -0.433; total luciferase, % of control: 73.3; Call: inactive
SEBOX (SEBOX homeobox) #3 — total luciferase, z-score: -0.0419; total luciferase, % of control: 81.1; Call: inactive
CHRM5 (cholinergic receptor muscarinic 5) #1 — total luciferase, z-score: -0.652; total luciferase, % of control: 68.9; Call: inactive

The results go on:
With knock-down of GDF10 (growth differentiation factor 10) #1, the screen gave total luciferase, z-score 1.24; total luciferase, % of control 107; inactive. For GDF10 (growth differentiation factor 10) #2, the entry reads total luciferase, z-score -0.375; total luciferase, % of control 74.4; inactive. For GDF10 (growth differentiation factor 10) #3 the deposit lists total luciferase, z-score -1.59; total luciferase, % of control 50.3; inactive. After knock-down of NAIF1 (nuclear apoptosis inducing factor 1) #1, the record shows total luciferase, z-score -0.978; total luciferase, % of control 62.4; inactive. After knock-down of NAIF1 (nuclear apoptosis inducing factor 1) #2, the screen gave total luciferase, z-score -0.295; total luciferase, % of control 76; inactive. NAIF1 (nuclear apoptosis inducing factor 1) #3 scored total luciferase, z-score 0.432; total luciferase, % of control 90.5; inactive.

Silencing of LRRC4B (leucine rich repeat containing 4B) #1 gave: total luciferase, z-score 0.77; total luciferase, % of control 97.2; inactive. LRRC4B (leucine rich repeat containing 4B) #2 showed total luciferase, z-score -0.0491; total luciferase, % of control 80.9; inactive. Depletion of LRRC4B (leucine rich repeat containing 4B) #3 resulted in: total luciferase, z-score -1.82; total luciferase, % of control 45.8; inactive. Knock-down of STAM (signal transducing adaptor molecule) #1 resulted in: total luciferase, z-score -0.396; total luciferase, % of control 74; inactive. Knock-down of STAM (signal transducing adaptor molecule) #2 came out at: total luciferase, z-score -0.148; total luciferase, % of control 78.9; inactive. STAM (signal transducing adaptor molecule) #3 showed total luciferase, z-score -0.75; total luciferase, % of control 67; inactive.
